For one substance, binding results are on record in paper PMC4978704.

The chains behind the UniProt entries cited, without tags or fusion partners.
UniProt O15234: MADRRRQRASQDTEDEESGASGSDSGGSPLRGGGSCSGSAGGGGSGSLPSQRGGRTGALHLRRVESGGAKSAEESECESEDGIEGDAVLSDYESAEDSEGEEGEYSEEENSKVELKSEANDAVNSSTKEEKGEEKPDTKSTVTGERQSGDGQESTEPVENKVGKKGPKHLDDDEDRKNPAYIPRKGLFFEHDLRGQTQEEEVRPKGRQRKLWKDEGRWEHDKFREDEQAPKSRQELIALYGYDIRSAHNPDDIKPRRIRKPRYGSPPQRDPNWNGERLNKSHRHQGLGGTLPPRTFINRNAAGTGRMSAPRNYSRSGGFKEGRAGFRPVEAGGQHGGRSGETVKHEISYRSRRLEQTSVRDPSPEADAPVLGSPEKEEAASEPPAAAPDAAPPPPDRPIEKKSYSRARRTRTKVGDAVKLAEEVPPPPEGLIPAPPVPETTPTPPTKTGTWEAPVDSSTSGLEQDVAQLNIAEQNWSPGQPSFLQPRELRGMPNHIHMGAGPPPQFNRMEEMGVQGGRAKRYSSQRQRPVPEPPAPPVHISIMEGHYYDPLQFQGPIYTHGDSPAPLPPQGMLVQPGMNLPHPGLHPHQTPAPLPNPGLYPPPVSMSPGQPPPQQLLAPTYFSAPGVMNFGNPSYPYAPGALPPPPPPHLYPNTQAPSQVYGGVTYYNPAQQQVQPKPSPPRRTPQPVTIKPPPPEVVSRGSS
UniProt P38919: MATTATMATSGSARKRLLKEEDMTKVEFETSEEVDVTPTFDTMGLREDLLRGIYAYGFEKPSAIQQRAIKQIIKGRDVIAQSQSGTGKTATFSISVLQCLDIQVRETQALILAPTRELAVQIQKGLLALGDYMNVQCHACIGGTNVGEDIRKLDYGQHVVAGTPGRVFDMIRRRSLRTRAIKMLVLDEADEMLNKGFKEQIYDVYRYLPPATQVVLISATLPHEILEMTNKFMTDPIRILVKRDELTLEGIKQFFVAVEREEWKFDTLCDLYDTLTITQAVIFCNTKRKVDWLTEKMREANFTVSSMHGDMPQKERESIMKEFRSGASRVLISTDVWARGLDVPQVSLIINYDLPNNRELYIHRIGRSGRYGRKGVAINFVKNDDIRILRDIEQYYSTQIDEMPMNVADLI

Results are given in words; binding and its absence hold for the method and conditions named. In cells and extracts the contact can be indirect. Some binding calls cover weakened binding; strength is not graded here.

The target of assay [1] is BTZ-GFP (barentsz, GFP-tagged) (UniProt O15234). The assay can be described thus: co-IP; pull-down of the GFP-tagged bait from HeLa cell lysate, 150 and 250 mM NaCl; endogenous eIF4A3 and Y14 detected by immunoblot. For orientation: In western blotting, separated proteins are transferred to a membrane and probed.
The target is the same in assay [2]. The assay can be described thus: co-IP; pull-down of the GFP-tagged bait from HeLa cell lysate, 500 mM NaCl; immunoblot.

In the case of “eukaryotic translation initiation factor 4A3 (eIF4A3), endogenous (from UniProt P38919 1-411)”, the binding entry is “binds” in assay [1] and “no binding (condition: 500 mM NaCl)” in assay [2].
